# From the supplement of paper PMC6411743
# ± gives the standard deviation of the averaged measurements. The list shows a part of the results.
# How the values were obtained:
# Test in all cases: NP40-soluble protein abundance relative to vehicle (solubility fold change) (ratio); higher = more soluble protein in presence of GTP
# [1] = target: T1, PLCL2 (UniProt Q9UPR0)
# T1 sequence (whole entry): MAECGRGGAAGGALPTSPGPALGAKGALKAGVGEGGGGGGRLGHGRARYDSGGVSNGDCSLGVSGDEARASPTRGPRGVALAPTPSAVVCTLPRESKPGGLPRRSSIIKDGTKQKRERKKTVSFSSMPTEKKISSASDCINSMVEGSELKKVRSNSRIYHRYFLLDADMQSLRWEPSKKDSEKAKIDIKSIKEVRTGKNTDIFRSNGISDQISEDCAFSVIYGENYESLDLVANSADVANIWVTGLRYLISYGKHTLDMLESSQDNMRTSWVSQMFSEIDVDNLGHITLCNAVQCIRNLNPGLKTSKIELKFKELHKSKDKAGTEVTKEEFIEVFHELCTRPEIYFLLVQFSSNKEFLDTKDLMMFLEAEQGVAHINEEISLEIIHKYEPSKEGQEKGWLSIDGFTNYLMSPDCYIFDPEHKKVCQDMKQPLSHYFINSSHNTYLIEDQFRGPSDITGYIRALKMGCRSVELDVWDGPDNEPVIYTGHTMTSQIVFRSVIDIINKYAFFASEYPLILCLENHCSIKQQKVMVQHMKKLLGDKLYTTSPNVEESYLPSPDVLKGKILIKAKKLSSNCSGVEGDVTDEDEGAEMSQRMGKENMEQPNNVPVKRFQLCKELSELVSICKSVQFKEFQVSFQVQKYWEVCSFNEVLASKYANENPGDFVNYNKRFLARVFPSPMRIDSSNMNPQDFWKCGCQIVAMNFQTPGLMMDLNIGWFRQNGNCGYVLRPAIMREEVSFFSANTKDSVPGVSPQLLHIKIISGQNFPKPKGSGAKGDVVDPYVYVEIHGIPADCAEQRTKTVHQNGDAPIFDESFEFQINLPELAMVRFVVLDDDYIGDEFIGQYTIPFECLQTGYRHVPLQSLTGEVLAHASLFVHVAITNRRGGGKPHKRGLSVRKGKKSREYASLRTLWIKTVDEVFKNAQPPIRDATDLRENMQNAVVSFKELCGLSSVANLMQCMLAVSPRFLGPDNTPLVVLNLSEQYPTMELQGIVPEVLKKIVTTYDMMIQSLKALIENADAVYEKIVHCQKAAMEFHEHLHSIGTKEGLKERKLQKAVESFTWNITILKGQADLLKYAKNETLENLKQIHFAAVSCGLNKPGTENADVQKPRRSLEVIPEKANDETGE
# How it was run: (§1)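 Crude Jurkat lysate, prepared by Dounce homogenisation, was exposed to eight concentrations from 0.1 to 10 mM for 10 min at room temperature and then 3 min at 37 °C. Solubilisation used 0.8% NP40 with benzonase for 60 min at 4 °C, followed by ultracentrifugation and TMT labelling of the supernatant for LC-MS/MS. After vsn normalisation of intensities, each value is the fold change against the detergent-processed vehicle within each replicate, across three independent experiments.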
# [2] = target: T2, RRP15 (UniProt Q9Y3B9)
# T2 sequence (whole entry): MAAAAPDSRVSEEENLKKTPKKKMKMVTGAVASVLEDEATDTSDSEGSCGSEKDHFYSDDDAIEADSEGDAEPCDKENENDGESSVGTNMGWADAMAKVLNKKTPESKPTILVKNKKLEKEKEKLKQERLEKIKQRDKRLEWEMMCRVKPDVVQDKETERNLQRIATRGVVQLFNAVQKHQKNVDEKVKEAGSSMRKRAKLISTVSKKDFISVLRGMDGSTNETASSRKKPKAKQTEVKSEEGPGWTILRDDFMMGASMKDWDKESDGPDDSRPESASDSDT
# How it was run: as §1
# [3] = target: T3, SNX6 (UniProt Q9UNH7)
# T3 sequence (whole entry): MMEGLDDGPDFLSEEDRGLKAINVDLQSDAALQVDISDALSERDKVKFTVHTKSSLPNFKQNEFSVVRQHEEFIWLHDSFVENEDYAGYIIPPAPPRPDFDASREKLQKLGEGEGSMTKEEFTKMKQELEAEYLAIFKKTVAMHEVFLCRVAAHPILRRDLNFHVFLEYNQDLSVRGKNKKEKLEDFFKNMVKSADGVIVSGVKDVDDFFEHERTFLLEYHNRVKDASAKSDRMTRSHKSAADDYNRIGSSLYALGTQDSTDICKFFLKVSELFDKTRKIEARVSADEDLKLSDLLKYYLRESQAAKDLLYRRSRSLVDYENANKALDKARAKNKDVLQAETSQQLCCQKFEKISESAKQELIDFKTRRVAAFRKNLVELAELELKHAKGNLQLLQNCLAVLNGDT
# How it was run: as §1
# [4] = target: T4, UniProt Q9Y2K1 and related entries
# T4 sequence (whole entry): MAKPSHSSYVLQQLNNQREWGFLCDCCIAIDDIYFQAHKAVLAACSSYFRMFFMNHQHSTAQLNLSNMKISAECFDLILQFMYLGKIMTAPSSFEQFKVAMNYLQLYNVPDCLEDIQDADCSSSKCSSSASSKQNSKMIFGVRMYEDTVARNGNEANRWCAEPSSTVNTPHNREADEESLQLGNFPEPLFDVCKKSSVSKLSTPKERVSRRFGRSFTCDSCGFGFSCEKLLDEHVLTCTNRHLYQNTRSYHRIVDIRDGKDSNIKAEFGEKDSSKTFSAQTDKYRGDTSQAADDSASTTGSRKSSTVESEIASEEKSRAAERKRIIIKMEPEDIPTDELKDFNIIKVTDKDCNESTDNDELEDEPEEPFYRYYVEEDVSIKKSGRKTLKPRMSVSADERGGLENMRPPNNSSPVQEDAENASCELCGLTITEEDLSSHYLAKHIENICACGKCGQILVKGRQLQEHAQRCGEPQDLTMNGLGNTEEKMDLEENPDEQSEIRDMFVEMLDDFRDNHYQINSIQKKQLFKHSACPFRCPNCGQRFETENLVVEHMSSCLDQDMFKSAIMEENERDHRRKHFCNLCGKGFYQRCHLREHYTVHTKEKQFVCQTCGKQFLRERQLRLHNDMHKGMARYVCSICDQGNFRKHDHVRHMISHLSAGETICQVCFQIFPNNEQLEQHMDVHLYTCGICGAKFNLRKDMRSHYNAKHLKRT
# How it was run: as §1
smiles,measurement,setting,value
Nc1nc2c(ncn2[C@@H]2O[C@H](COP(=O)(O)OP(=O)(O)OP(=O)(O)O)[C@@H](O)[C@H]2O)c(=O)[nH]1 [guanosine triphosphate],NP40-soluble protein abundance,[1]; concentration: 0.1mM,1.06 ± 0.034
same,NP40-soluble protein abundance,[1]; concentration: 0.5mM,1.07 ± 0.078
same,NP40-soluble protein abundance,[1]; concentration: 1mM,0.994 ± 0.06
same,NP40-soluble protein abundance,[1]; concentration: 2mM,0.986 ± 0.057
same,NP40-soluble protein abundance,[1]; concentration: 4mM,0.9903 ± 0.0089
same,NP40-soluble protein abundance,[1]; concentration: 6mM,0.924 ± 0.029
same,NP40-soluble protein abundance,[1]; concentration: 8mM,0.955 ± 0.016
same,NP40-soluble protein abundance,[1]; concentration: 10mM,0.933 ± 0.078
same,NP40-soluble protein abundance,[2]; concentration: 0.1mM,0.914 ± 0.12
same,NP40-soluble protein abundance,[2]; concentration: 0.5mM,0.98 ± 0.03
same,NP40-soluble protein abundance,[2]; concentration: 1mM,0.995 ± 0.058
same,NP40-soluble protein abundance,[2]; concentration: 2mM,1.08 ± 0.052
same,NP40-soluble protein abundance,[2]; concentration: 4mM,1.1 ± 0.037
same,NP40-soluble protein abundance,[2]; concentration: 6mM,1.16 ± 0.066
same,NP40-soluble protein abundance,[2]; concentration: 8mM,1.15 ± 0.011
same,NP40-soluble protein abundance,[2]; concentration: 10mM,1.3 ± 0.027
same,NP40-soluble protein abundance,[3]; concentration: 0.1mM,0.972 ± 0.0099
same,NP40-soluble protein abundance,[3]; concentration: 0.5mM,0.943 ± 0.028
same,NP40-soluble protein abundance,[3]; concentration: 1mM,0.954 ± 0.036
same,NP40-soluble protein abundance,[3]; concentration: 2mM,0.891 ± 0.039
same,NP40-soluble protein abundance,[3]; concentration: 4mM,0.91 ± 0.048
same,NP40-soluble protein abundance,[3]; concentration: 6mM,0.889 ± 0.058
same,NP40-soluble protein abundance,[3]; concentration: 8mM,0.912 ± 0.042
same,NP40-soluble protein abundance,[3]; concentration: 10mM,0.876 ± 0.051
same,NP40-soluble protein abundance,[4]; concentration: 0.1mM,1.09 ± 0.12
same,NP40-soluble protein abundance,[4]; concentration: 0.5mM,1.13 ± 0.12
same,NP40-soluble protein abundance,[4]; concentration: 1mM,1.18 ± 0.17
same,NP40-soluble protein abundance,[4]; concentration: 2mM,1.21 ± 0.12

# Two entries picked at random from the list so far:
smiles,measurement,setting,value
Nc1nc2c(ncn2[C@@H]2O[C@H](COP(=O)(O)OP(=O)(O)OP(=O)(O)O)[C@@H](O)[C@H]2O)c(=O)[nH]1 [guanosine triphosphate],NP40-soluble protein abundance,[3]; concentration: 6mM,0.889 ± 0.058
same,NP40-soluble protein abundance,[1]; concentration: 6mM,0.924 ± 0.029
